Laboratory results: PubChem BioAssay AID602203 (INSERM, 2012)
Purpose: 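Genes whose knock-down alters cisplatin killing of lung cancer cells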 (follow-up of hits). Cell system: human A549 lung cancer cells. Reagent: siRNA pair against human genes. Treatment: cisplatin at a dose killing half of control-siRNA cells, given 48 h after transfection. Read-out: 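Cisplatin at a dose killing 50% of control cells, 48 h post-transfection; each siRNA +1 protective, -1 sensitizing, 0 if toxic (LDH) or antiproliferative (WST-1); per-gene sum and mean death change versus control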. Scale: summed siRNA score for cisplatin death: higher = more siRNAs reduced cisplatin-induced cell death; change in cisplatin death versus control: higher = fewer cells died than in control. Hit rule: In these data the active calls have summed siRNA score for cisplatin death at about -3 or lower, or at about 3 or higher.
Here is one part, drawn at random, of 999 deposited reagents. Over the whole deposit, 85 (8.5%) are marked active. 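Unclear how single-siRNA scores of -1, 0 or +1 give the printed -4 to 4 range; calls lie near -3 or 3 and beyond.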 The record does not give: the amount of reagent, the time to read-out, the dose of the treatment.

| target gene | summed siRNA score for cisplatin death | change in cisplatin death versus control (percentage points) | call |
| --- | --- | --- | --- |
| PPY (GeneID 5539) | -2 | – | inactive |
| NRBP1 (GeneID 29959) | -1 | – | inactive |
| LOC390231 | -1 | – | inactive |
| LOC388205 | 1 | – | inactive |
| SLC67A1-AS (GeneID 5003) | 3 | 8.69 | active |
| HAO2 (GeneID 51179) | 1 | – | inactive |
| CDK16 (GeneID 5127) | 0 | – | inactive |
| MUC3B (GeneID 57876) | 1 | – | inactive |
| LOC440222 | 1 | – | inactive |
| CDC42BPG (GeneID 55561) | 0 | – | inactive |
| ANAPC1P6 (GeneID 402096) | 0 | – | inactive |
| OMA1 (GeneID 115209) | 1 | – | inactive |
| ACSL3 (GeneID 2181) | 1 | – | inactive |
| PKN3 (GeneID 29941) | 1 | – | inactive |
| FCGBP (GeneID 8857) | 0 | – | inactive |
| KIF2C (GeneID 11004) | 1 | – | inactive |
| CXCL13 (GeneID 10563) | 0 | – | inactive |
| DEFB1 (GeneID 1672) | -2 | – | inactive |
| AXDND1 (GeneID 126859) | 0 | – | inactive |
| USP5 (GeneID 8078) | 0 | – | inactive |
| PHF6 (GeneID 84295) | 1 | – | inactive |
| IGIP (GeneID 492311) | 1 | – | inactive |
| BSN (GeneID 8927) | -3 | -7.4 | active |
| RHOBTB2 (GeneID 23221) | 1 | – | inactive |
| PLEK (GeneID 5341) | -1 | – | inactive |
| ANGPTL3 (GeneID 27329) | -2 | – | inactive |
| NPC2 (GeneID 10577) | 0 | – | inactive |
| GH1 (GeneID 2688) | -1 | – | inactive |
| PHF1 (GeneID 5252) | -1 | – | inactive |
| LHFPL5 (GeneID 222662) | -1 | – | inactive |
| NFX1 (GeneID 4799) | 0 | – | inactive |
| IL23R (GeneID 149233) | -1 | – | inactive |
| PNMT (GeneID 5409) | -2 | – | inactive |
| MED27 (GeneID 9442) | 0 | – | inactive |
| DEFB4A (GeneID 1673) | -3 | -13.1 | active |
| LRRC37A6P (GeneID 387646) | 0 | – | inactive |
| OR6W1P (GeneID 89883) | 0 | – | inactive |
| IGF2R (GeneID 3482) | -1 | – | inactive |
| KCNJ6 (GeneID 3763) | -2 | – | inactive |
| S100A7A (GeneID 338324) | 0 | – | inactive |
| PMM2 (GeneID 5373) | -1 | – | inactive |
| GAS8-AS1 (GeneID 750) | -1 | – | inactive |
| CD248 (GeneID 57124) | 1 | – | inactive |
| UBQLN4 (GeneID 56893) | -1 | – | inactive |
| CCDC125 (GeneID 202243) | 1 | – | inactive |

11 consecutive reagents already listed:
| target gene | summed siRNA score for cisplatin death | change in cisplatin death versus control (percentage points) | call |
| --- | --- | --- | --- |
| IL23R (GeneID 149233) | -1 | – | inactive |
| PNMT (GeneID 5409) | -2 | – | inactive |
| MED27 (GeneID 9442) | 0 | – | inactive |
| DEFB4A (GeneID 1673) | -3 | -13.1 | active |
| LRRC37A6P (GeneID 387646) | 0 | – | inactive |
| OR6W1P (GeneID 89883) | 0 | – | inactive |
| IGF2R (GeneID 3482) | -1 | – | inactive |
| KCNJ6 (GeneID 3763) | -2 | – | inactive |
| S100A7A (GeneID 338324) | 0 | – | inactive |
| PMM2 (GeneID 5373) | -1 | – | inactive |
| GAS8-AS1 (GeneID 750) | -1 | – | inactive |

The results go on:
| target gene | summed siRNA score for cisplatin death | change in cisplatin death versus control (percentage points) | call |
| --- | --- | --- | --- |
| ALDH4A1 (GeneID 8659) | -2 | – | inactive |
| IGHV3OR16-17 (GeneID 390714) | -2 | – | inactive |
| LOC441115 | 3 | 10.3 | active |
| MCL1 (GeneID 4170) | -3 | -11.7 | active |
| DUSP8 (GeneID 1850) | 1 | – | inactive |
| TPCN1 (GeneID 53373) | 0 | – | inactive |
| DBP (GeneID 1628) | -2 | – | inactive |
| SLC2A11 (GeneID 66035) | -1 | – | inactive |
| LIM2 (GeneID 3982) | -2 | – | inactive |
| KCNK16 (GeneID 83795) | 1 | – | inactive |
| RAB14 (GeneID 51552) | 0 | – | inactive |
| LOC343495 | 1 | – | inactive |
| MTAP (GeneID 4507) | 0 | – | inactive |
| TRIM42 (GeneID 287015) | 0 | – | inactive |
| THYN1 (GeneID 29087) | 1 | – | inactive |
| NAMPT (GeneID 10135) | -1 | – | inactive |
| DNM1P41 (GeneID 440299) | 0 | – | inactive |
| TMEM184B (GeneID 25829) | 1 | – | inactive |
| PPP2R1B (GeneID 5519) | -1 | – | inactive |
| TMEM187 (GeneID 8269) | -1 | – | inactive |
| LOC440065 | 1 | – | inactive |
| CDC7 (GeneID 8317) | -2 | – | inactive |
| KIAA0408 (GeneID 9729) | -1 | – | inactive |
| LOC440665 | 0 | – | inactive |
| EBP (GeneID 10682) | -3 | -10.3 | active |
| PLA1A (GeneID 51365) | -1 | – | inactive |
| RNF151 (GeneID 146310) | -1 | – | inactive |
| LOC440334 | 2 | – | inactive |
| ARIH2 (GeneID 10425) | -2 | – | inactive |
| OSTCP1 (GeneID 202459) | -3 | -8.85 | active |
| GOLT1A (GeneID 127845) | 2 | – | inactive |
| RNF103 (GeneID 7844) | -1 | – | inactive |
| LRRC4C (GeneID 57689) | -2 | – | inactive |
| GRIA3 (GeneID 2892) | -2 | – | inactive |
| LOC388743 | 2 | – | inactive |
| LOC441073 | 2 | – | inactive |
| SIGLEC12 (GeneID 89858) | 1 | – | inactive |
| PBXIP1 (GeneID 57326) | 0 | – | inactive |
| SETDB2 (GeneID 83852) | 1 | – | inactive |
| PROP1 (GeneID 5626) | 2 | – | inactive |
| PEX12 (GeneID 5193) | 0 | – | inactive |
| LRRC37A2 (GeneID 474170) | 2 | – | inactive |
| ROBO3 (GeneID 64221) | 1 | – | inactive |
| CDK14 (GeneID 5218) | -1 | – | inactive |
| AKAP8 (GeneID 10270) | 0 | – | inactive |
| FBXO24 (GeneID 26261) | 0 | – | inactive |
| PTPN7 (GeneID 5778) | -2 | – | inactive |
| PSMD7 (GeneID 5713) | 3 | 16 | active |
| LOC387880 | -1 | – | inactive |
| MED24 (GeneID 9862) | -2 | – | inactive |
| AK5 (GeneID 26289) | -1 | – | inactive |
| PSMD13 (GeneID 5719) | 1 | – | inactive |
| JAM3 (GeneID 83700) | 0 | – | inactive |
| SPHK1 (GeneID 8877) | 0 | – | inactive |
| LOC442031 | 2 | – | inactive |
| PRAC2 (GeneID 360205) | 1 | – | inactive |
| FOXN2 (GeneID 3344) | 0 | – | inactive |
| LRP1B (GeneID 53353) | 0 | – | inactive |
| TEX56P (GeneID 404220) | 0 | – | inactive |
| PIP5K1B (GeneID 8395) | -2 | – | inactive |
| LOC388312 | 0 | – | inactive |
| GTF2H4 (GeneID 2968) | -2 | – | inactive |
